The target in experiment [1] is miniTurbo-tagged Itga5 (human) (UniProt P08648). The experiment in a line: proximity labelling; miniTurbo on the cytosolic tail of human Itga5 in mouse kidney fibroblasts; 50 µM biotin 30 min at 37 °C; streptavidin magnetic beads; label-free MS; Itgb1-KO fibroblasts expressing Itga5-miniTurbo as control.
For experiment [2], the target named is β1 integrin (Itgb1) (mouse (endogenous in mouse kidney fibroblasts)) (UniProt P09055). The experiment in a line: cross-linking + affinity purification with mass spectrometry; fibroblasts cross-linked in vivo with DSP (0.1 mg/ml in PBS, 30 min on ice); IP with homemade anti-β1 integrin antibody and protein A/G agarose; MS.

Sequences of proteins named here, by UniProt entry; tags and fusion partners are left off. Residues count along the entry.
UniProt P08648, residues 42-1049: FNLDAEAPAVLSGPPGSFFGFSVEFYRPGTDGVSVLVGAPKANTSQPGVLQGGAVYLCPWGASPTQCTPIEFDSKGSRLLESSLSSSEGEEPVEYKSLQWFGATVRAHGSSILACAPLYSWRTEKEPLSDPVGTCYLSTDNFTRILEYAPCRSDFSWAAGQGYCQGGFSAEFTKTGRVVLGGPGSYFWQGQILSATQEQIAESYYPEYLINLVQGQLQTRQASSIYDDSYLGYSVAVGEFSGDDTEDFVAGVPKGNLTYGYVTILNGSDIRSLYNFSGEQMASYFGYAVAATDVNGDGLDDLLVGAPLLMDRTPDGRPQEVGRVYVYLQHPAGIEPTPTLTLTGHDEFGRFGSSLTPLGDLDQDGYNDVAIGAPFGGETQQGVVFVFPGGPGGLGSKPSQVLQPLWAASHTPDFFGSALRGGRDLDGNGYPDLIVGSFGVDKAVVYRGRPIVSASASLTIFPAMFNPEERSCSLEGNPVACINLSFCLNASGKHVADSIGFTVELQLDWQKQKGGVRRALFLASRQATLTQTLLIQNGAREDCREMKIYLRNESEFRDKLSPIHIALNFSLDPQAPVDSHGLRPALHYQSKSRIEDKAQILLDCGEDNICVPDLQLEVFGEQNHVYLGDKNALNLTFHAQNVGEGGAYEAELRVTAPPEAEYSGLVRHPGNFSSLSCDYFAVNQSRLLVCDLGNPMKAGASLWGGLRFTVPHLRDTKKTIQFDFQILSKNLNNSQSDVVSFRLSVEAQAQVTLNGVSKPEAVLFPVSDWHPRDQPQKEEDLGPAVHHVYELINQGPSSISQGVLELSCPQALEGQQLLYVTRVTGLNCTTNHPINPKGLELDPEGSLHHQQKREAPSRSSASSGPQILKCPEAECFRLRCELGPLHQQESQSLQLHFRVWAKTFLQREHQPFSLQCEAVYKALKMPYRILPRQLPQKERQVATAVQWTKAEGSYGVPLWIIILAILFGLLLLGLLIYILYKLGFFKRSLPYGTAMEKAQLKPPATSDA
UniProt P09055, residues 21-798: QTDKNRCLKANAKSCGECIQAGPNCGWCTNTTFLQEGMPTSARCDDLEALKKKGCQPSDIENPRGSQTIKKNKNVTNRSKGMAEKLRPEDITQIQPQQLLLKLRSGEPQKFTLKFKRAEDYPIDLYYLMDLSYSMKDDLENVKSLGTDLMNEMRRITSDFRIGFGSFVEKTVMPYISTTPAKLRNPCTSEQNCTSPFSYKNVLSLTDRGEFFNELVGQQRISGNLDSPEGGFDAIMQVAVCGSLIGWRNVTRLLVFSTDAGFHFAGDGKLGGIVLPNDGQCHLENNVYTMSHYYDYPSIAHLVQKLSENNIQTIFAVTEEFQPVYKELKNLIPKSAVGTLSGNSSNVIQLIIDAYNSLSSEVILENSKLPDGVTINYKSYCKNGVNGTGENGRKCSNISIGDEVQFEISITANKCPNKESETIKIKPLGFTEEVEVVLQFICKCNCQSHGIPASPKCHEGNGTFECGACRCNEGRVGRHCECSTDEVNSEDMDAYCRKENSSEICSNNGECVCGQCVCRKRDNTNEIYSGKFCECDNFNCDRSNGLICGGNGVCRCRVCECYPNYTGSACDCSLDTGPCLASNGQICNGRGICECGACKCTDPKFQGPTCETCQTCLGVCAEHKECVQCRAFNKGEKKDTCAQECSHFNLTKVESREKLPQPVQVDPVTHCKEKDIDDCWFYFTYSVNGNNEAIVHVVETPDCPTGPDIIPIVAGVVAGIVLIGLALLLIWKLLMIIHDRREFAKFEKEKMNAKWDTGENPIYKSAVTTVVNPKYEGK
UniProt Q9JMA1: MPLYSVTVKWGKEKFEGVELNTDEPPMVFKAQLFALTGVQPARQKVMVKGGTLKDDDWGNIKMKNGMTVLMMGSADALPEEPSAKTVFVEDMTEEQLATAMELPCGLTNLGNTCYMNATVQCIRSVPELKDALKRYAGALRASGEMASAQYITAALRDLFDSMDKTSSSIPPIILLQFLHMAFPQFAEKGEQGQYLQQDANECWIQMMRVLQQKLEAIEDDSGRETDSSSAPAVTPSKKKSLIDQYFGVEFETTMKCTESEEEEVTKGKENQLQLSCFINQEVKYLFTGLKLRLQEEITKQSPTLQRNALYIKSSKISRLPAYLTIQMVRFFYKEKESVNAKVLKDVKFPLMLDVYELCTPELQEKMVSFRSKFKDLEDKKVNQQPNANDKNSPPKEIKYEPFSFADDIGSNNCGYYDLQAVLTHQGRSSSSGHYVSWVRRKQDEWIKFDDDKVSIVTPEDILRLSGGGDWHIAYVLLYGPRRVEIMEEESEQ
UniProt Q8BH57: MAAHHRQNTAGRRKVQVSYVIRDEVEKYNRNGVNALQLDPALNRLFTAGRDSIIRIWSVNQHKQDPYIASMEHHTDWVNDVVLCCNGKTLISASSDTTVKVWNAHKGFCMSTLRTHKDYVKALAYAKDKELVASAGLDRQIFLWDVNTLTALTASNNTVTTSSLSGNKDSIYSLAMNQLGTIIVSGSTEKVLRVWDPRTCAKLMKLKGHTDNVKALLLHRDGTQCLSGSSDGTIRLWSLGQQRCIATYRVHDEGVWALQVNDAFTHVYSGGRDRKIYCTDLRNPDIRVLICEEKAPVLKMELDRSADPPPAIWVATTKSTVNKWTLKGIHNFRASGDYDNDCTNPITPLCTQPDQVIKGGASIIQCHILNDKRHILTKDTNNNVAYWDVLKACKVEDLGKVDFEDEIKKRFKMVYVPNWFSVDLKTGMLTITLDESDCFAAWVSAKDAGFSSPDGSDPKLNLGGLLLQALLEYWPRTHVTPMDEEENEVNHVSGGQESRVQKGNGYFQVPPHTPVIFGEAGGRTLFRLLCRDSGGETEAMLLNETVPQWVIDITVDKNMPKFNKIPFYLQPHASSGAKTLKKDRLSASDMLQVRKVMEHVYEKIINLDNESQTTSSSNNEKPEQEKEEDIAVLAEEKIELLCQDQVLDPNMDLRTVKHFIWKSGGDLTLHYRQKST
UniProt P70398: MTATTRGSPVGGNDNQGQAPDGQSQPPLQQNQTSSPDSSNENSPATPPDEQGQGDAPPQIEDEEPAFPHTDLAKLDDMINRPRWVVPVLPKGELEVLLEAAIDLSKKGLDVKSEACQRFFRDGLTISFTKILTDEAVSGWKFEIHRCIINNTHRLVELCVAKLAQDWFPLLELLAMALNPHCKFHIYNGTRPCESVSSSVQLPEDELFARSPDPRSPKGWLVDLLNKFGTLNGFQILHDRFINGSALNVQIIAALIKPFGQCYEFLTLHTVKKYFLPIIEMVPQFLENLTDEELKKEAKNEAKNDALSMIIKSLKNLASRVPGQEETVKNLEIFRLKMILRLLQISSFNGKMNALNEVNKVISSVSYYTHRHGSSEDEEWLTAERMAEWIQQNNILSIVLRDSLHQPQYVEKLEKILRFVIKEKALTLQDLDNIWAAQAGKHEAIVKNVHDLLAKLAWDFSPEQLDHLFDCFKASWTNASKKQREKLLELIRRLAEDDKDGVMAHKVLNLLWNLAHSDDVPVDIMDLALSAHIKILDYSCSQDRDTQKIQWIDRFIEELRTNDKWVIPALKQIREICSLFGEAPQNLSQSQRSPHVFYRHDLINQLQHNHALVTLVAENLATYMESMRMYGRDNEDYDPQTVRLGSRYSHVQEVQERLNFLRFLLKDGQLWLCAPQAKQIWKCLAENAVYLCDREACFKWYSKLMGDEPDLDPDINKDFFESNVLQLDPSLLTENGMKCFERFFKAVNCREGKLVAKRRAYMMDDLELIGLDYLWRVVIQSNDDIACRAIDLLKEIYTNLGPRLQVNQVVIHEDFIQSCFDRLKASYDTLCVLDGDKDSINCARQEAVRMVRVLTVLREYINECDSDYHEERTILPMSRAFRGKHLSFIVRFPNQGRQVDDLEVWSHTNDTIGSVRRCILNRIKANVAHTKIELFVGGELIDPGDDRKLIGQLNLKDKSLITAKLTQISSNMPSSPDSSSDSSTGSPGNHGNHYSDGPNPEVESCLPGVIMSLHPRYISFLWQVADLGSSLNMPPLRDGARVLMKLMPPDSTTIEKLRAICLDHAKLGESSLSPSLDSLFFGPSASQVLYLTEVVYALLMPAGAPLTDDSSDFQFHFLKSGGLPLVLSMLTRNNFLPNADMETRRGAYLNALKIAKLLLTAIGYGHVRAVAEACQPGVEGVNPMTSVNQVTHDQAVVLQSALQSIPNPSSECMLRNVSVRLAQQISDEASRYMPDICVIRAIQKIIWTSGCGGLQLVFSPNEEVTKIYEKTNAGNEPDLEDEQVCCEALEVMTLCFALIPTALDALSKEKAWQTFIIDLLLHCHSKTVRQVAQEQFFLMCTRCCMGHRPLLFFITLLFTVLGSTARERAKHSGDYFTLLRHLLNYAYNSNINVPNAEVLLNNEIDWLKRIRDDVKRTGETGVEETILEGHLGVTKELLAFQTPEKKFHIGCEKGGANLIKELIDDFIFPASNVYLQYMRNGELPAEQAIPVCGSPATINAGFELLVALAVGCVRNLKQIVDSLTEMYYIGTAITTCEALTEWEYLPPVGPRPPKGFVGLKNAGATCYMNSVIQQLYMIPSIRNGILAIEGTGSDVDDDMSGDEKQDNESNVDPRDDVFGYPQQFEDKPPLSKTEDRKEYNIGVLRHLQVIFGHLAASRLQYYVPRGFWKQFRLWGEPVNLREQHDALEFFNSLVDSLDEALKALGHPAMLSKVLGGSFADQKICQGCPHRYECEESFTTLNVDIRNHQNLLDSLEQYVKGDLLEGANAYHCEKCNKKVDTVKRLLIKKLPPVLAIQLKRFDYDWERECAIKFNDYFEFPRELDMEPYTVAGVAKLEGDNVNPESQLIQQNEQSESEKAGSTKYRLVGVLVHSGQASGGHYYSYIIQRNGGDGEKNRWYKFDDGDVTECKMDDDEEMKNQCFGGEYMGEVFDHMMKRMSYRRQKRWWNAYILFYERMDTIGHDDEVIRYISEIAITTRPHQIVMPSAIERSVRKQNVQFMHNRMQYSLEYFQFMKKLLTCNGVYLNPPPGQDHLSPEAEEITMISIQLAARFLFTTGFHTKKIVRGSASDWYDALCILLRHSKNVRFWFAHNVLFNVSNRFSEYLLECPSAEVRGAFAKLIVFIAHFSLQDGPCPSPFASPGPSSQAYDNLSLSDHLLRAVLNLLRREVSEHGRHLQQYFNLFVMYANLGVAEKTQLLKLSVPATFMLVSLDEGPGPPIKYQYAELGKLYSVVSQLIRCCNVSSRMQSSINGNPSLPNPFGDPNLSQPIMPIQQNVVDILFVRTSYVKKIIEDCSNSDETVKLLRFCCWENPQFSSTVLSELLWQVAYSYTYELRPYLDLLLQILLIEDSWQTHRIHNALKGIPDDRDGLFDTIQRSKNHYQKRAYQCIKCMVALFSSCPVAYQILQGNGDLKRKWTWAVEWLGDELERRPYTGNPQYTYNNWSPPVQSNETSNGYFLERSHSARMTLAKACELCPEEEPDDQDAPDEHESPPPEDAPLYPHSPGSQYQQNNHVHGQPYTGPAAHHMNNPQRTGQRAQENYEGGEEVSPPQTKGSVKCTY
UniProt P62069: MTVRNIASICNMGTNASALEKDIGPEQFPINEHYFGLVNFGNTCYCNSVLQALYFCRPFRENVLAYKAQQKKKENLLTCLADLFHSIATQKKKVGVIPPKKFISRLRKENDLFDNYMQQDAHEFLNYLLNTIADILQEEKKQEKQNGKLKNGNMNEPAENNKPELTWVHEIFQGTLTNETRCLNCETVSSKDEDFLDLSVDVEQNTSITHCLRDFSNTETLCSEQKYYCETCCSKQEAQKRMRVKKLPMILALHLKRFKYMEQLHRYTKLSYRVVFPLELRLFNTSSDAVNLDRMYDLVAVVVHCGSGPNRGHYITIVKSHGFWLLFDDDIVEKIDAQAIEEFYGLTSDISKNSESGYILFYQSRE
UniProt Q9D9M2: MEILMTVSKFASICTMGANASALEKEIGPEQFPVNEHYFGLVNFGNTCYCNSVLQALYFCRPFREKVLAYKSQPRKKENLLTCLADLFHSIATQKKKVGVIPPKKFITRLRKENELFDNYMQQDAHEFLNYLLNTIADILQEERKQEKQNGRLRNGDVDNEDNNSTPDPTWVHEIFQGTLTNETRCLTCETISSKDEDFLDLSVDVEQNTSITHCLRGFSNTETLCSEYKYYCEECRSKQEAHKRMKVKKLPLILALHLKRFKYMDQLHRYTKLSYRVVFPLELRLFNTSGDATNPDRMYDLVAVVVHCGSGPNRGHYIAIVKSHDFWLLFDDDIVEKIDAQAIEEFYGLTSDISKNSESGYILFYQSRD

No constants are given. Whether binding was seen depends on the method and setting. Binding seen in cells or lysates may run through a third protein. Here binding means that the protein was enriched with, or labelled near, the bait; the list need not be complete. A no says only that the protein was not detected with the bait.

For “USP14 (from UniProt Q9JMA1 1-493) (enzyme)”, in experiment [1], the binding result was “no binding”.

Turning to WDR48 (from UniProt Q8BH57 1-676), the binding entry is given as “binds” in experiment [1] and “no binding” in experiment [2].

In the case of “USP9X (from UniProt P70398 1-2559) (enzyme)”, the binding result in experiment [1] was “no binding”.

Take “USP46 (from UniProt P62069 1-366) (enzyme)”: the figures for the binding entry in experiment [1] and in experiment [2] were “binds” and “no binding”, respectively.

As for “USP12 (from UniProt Q9D9M2 1-370) (enzyme)”, the binding result is recorded as “binds” in experiment [1] and “no binding” in experiment [2].

B1: OTUD6B (enzyme, UniProt Q8K2H2 1-294)
chain: MEEVVAEELDDEEQLVRRHRKEKKELQAKIQGMKNAVPKNDKKRRKQLTEDVAKLEREMEQKHREELEQLKQLTFKDSKIDSVAVNISNLVLENQPPRISKAQKRREKKAALEKEREERIAEAEIENLSGARHLESEKLAQILAARELEIKQIPSDGHCMYGALEDQLREQDCALTVASLRRQTAEYMQTHSDDFLPFLTNPSTGDMYTPEEFGKYCDDIVNTAAWGGQLELRALSHILQTPIEILQADAPPIIVGEEYPRNPLVLVYMRHAYGLGEHYNSVTRLVNSATENCS
As to B1, the binding result in experiment [1] is “no binding”.

B2: BAP1 (enzyme, UniProt Q99PU7 1-728)
chain: MNKGWLELESDPGLFTLLVEDFGVKGVQVEEIYDLQSKCQGPVYGFIFLFKWIEERRSRRKVSTLVDDTSVIDDDIVNNMFFAHQLIPNSCATHALLSVLLNCSNVDLGPTLSRMKDFTKGFSPESKGYAIGNAPELAKAHNSHARPEPRHLPEKQNGLSAVRTMEAFHFVSYVPITGRLFELDGLKVYPIDHGPWGEDEEWTDKARRVIMERIGLATAGEPYHDIRFNLMAVVPDRRIKYETRLHVLKVNRQTVLEALQQLIRVTQPELIQTHKSQESQLPEESKPASSKSPLGLEAGRTPVASECTQTDGAEEVAGSCPQTTTHSPPSKCKLVVKPPGSSLNGVPPNPAPIVQRLPAFLDNHNYAKSPMQEEEDLAAGVGRSRVPVRAPQQYSEDEDDYEDEDEDVQNTNPAIRYKRKGTGKPGSLSNSSDGQLSVLQPNTINVLTEKLQESQKDLSVPLSIKTSSGAGSPAVAVPTHSQPSPTPSNESTDTASEIGSAFNSPLRSPIRSANPTRPSSPVTSHISKVLFGEDDSLLRVDCIRYNRAVRDLGPVISTGLLHLAEDGVLSPLALTEGGKGSSPSTRSSQGSQGSSGLEEKEVVEVTESRDKPGLNRSSEPLSGEKYSPKELLALLKCVEAEIANYEACLKEEVEKRKKFKIDDQRRTHNYDEFICTFISMLAQEGMLANLVEQNISVRRRQGVSIGRLHKQRKPDRRKRSRPYKAKRQ
Take B2: the binding entry in experiment [1] was “no binding”.

Values taken from PMC11624278.
